Reference: patent publication US20240067640 (published 2024)

Test: general procedure: solution-phase peptide synthesis; PyBOP/HOBt/DIPEA

Substance	conjugation yield (conjugation step)	step yield (late stage modification step)
2-[[2-[[2-[[2-[[2-[[2-[[2-[[2-[[2-[[2-[[2-[3-[[(1S)-2-[[(1S)-2-[[2-[(1S,2S,4R,6R,8S,9S,11S,12R,13S,19S)-12,19-difluoro-6-(3-fluorophenyl)-11-hydroxy-9,13-dimethyl-16-oxo-5,7-dioxapentacyclo[10.8.0.02,9.04,8.013,18]icosa-14,17-dien-8-yl]-2-oxo-ethoxy]methylamino]-1-methyl-2-oxo-ethyl]amino]-1-methyl-2-oxo-ethyl]amino]-3-oxo-propyl]-5-(2,5-dioxopyrrol-1-yl)benzoyl]-methyl-amino]acetyl]-methyl-amino]acetyl]-methyl-amino]acetyl]-methyl-amino]acetyl]-methyl-amino]acetyl]-methyl-amino]acetyl]-methyl-amino]acetyl]-methyl-amino]acetyl]-methyl-amino]acetyl]-methyl-amino]acetic acid	15.89% yield	–
(S)-11-benzyl-1-(9H-fluoren-9-yl)-3,6,9,12,15-pentaoxo-2-oxa-4,7,10,13,16-pentaazaheptadecan-17-yl acetate	–	41%
